Data: PMC12639495
No constants are given. Whether binding was seen depends on the method and setting. In cells and extracts the contact can be indirect. Some results given as binding are weak or reduced against the parent protein; the word gives no strength.

Amino acid sequences for entries named in this document (tags omitted).
UniProt P37231: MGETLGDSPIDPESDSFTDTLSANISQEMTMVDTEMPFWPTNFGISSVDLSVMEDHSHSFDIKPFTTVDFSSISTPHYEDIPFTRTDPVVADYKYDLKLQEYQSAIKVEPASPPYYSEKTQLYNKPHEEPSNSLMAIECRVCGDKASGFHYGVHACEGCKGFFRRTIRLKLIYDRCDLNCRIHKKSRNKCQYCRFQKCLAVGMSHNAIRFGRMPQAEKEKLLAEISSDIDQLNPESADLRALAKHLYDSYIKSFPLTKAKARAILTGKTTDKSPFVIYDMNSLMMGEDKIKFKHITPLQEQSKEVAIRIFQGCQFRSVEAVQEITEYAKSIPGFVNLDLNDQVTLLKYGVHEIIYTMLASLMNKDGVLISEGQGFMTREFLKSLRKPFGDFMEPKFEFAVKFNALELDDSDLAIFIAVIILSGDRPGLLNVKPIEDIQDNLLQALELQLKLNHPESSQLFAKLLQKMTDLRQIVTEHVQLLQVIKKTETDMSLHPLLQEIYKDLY
UniProt Q92830: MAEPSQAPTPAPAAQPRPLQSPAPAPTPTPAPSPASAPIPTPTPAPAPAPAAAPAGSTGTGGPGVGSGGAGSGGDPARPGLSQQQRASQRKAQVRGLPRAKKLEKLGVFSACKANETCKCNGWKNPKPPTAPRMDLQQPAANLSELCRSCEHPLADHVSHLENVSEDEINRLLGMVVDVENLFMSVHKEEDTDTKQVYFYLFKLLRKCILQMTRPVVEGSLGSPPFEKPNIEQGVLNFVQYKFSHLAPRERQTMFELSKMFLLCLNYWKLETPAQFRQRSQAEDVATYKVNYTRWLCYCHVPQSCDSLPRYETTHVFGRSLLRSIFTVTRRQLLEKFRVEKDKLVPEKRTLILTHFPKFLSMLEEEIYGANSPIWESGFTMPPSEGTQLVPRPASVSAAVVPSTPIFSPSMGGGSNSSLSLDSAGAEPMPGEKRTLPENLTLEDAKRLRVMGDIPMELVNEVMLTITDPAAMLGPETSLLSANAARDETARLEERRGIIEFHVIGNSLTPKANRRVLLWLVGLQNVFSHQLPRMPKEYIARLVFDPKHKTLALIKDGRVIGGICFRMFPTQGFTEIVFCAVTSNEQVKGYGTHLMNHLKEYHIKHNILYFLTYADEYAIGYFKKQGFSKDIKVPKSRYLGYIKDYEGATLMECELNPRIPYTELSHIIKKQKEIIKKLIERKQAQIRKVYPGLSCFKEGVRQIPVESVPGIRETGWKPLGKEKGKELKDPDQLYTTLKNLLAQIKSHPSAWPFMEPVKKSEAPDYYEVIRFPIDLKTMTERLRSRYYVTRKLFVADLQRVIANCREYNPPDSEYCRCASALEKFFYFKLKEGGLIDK

Molecular target: T1, transcriptional coactivator PGC1β (UniProt Q86YN6)
T1 sequence: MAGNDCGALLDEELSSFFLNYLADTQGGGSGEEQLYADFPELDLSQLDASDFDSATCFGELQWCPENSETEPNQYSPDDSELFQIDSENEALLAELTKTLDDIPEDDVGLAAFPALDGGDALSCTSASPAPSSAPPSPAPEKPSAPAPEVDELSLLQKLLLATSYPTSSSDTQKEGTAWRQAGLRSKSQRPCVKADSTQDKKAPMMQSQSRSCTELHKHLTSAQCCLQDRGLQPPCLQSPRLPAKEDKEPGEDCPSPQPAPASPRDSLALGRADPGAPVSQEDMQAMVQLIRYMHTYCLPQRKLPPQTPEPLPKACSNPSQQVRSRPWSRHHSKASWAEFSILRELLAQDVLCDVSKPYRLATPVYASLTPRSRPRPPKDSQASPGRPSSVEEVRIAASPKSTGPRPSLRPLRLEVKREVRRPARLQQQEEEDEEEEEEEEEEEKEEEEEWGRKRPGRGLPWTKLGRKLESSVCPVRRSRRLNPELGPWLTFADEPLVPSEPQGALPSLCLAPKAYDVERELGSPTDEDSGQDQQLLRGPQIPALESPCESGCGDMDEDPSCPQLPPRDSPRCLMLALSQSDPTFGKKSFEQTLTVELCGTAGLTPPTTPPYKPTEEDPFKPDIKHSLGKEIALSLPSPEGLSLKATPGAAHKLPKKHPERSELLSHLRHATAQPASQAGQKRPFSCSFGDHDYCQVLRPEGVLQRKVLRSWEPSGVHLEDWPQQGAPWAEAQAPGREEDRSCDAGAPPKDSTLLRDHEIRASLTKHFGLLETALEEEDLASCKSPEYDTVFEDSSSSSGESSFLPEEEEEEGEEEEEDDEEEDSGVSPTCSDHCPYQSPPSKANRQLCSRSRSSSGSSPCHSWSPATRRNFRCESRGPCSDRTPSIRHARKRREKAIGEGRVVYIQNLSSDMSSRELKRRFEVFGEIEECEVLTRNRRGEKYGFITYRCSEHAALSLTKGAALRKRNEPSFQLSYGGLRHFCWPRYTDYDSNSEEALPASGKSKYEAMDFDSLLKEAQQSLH
Assay: co-IP; antibodies (GCN5, PGC-1β, Ac-Lys, PPARγ; 4 μg) on protein A/G magnetic beads; pre-cleared RIPA lysates, 4 °C for 2 h; five washes with PBS containing 0.25% Tween-20; Western blot; cells with EAS1 knock-down or overexpression

“transcription factor PPARγ (from UniProt P37231 1-505)” was tested, and the binding was “binds”.
With “acetyltransferase GCN5 (from UniProt Q92830 1-837)” the binding was “binds”.
